In patent publication US20230176076:

Test system: T1, JUL1 (JULGI) (Arabidopsis thaliana)
T1 sequence: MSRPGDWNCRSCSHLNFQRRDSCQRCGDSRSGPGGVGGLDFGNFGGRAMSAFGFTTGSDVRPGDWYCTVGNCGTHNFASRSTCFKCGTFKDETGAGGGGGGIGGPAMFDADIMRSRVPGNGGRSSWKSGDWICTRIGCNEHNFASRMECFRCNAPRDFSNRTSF
Test: binding assay
Conditions: GST-JUL1 bead surface interaction assay, fluorescence microscopy; purified recombinant protein; protein details: GST

“GGGGCCGGGGCCGGGGCCGGGG [C9orf72 G-quadruplex]”: binds.

For at least one entry, the source does not settle the construct or the ends of the probe. Protein sequences can lack the tags named with them.
